From the supplement of paper PMC10727501
Some of the results follow. Single values are uncertain here, since repeats match poorly.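 Researchers measured free-swimming zebrafish larvae's O-bend response probability to dark flashes (naive: first five; training: remaining flashes of four 60-flash blocks; test: later 60-flash block) and OMR turning toward alternating leftward/rightward LED motion. Six treated larvae were compared to sixty 0.1% DMSO controls, with |SSMD|≥2 marking a hit.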

These molecules were tested on Danio rerio larvae (5 dpf, TLF) (assay: Prob-Test (SSMD vs DMSO vehicle); higher = higher than vehicle (e.g. higher dark-flash O-bend response probability, or better optomotor performance)). Details: 10 µM; pre-incubation: 30-90 min.
`COc1ccc([C@@H]2CC(=O)c3c(O)cc(O[C@@H]4O[C@H](CO[C@@H]5O[C@@H](C)[C@H](O)[C@H](O)[C@H]5O)[C@@H](O)[C@H](O)[C@H]4O)cc3O2)cc1O` [Hesperidin] showed a Prob-Test of 0.0163.
`O=C(/C=C/c1cccnc1)NCCCCC1CCN(C(=O)c2ccccc2)CC1` showed a Prob-Test of 0.2.
`CCOC(=O)[C@H](CCc1ccccc1)N[C@H]1CS[C@H](c2cccs2)CN(CC(=O)O)C1=O.Cl` [Temocapril HCl] showed a Prob-Test of -0.158.
`COC(=O)C1=C(C)NC(C)=C(C(=O)OC)C1c1ccccc1[N+](=O)[O-]` [Nifedipine] showed a Prob-Test of -0.32.
Work on `CCNC(=O)CCC/C=C\C[C@@H]1[C@@H](/C=C/C(O)CCc2ccccc2)[C@H](O)C[C@@H]1O` (some centres undefined) [Bimatoprost] yielded a Prob-Test of -0.0812.
`Oc1ccc(-c2nc(-c3ccc(F)cc3)c(-c3ccncc3)[nH]2)cc1` was tested, and the Prob-Test was -0.184.
`COc1ccc(-c2cc(=O)c3c(O)cc(O)cc3o2)cc1O` [Diosmetin] gave a Prob-Test of -0.784.
For `CC1(C)S[C@H]2[C@H](NC(=O)[C@H](N)c3ccc(O)cc3)C(=O)N2[C@H]1C(=O)O` [Amoxicillin], the Prob-Test was -0.58.
In the case of `CC[C@]1(O)C[C@@H]2CN(CCc3c([nH]c4ccccc34)[C@@](C(=O)OC)(c3cc4c(cc3OC)N(C=O)[C@H]3[C@@](O)(C(=O)OC)[C@H](OC(C)=O)[C@]5(CC)C=CCN6CC[C@@]43[C@@H]65)C2)C1.O=S(=O)(O)O` [Vincristine], the Prob-Test is reported as 0.692.
In the case of `CC(C)[C@H](N)C(=O)OCCOCn1cnc2c(=O)[nH]c(N)nc21.Cl` [Valaciclovir HCl], the Prob-Test is reported as 0.322.
`Oc1nc(-c2ccc(C(F)(F)F)cc2)nc2c1CSCC2` was tested, and the Prob-Test was -0.609.
`Cc1nnc(C(C)C)n1C1CC2CCC(C1)N2CC[C@H](NC(=O)C1CCC(F)(F)CC1)c1ccccc1` (some centres undefined) [Maraviroc] showed a Prob-Test of -0.125.
Molecule `N#Cc1ccc(-c2csc(NN=C3CCCC3)n2)cc1` [Remodelin] has a Prob-Test of -1.74.
`C[C@H](Cn1cnc2c(N)ncnc21)OCP(=O)(O)O` [Tenofovir] gave a Prob-Test of 0.311.
`CCC[C@@H]1C[C@@H](C(=O)N[C@H]([C@H]2O[C@@H](SC)[C@H](OP(=O)(O)O)[C@@H](O)[C@H]2O)[C@H](C)Cl)N(C)C1` [Clindamycin phosphate] was tested, and the Prob-Test was 0.213.
In the case of `COc1cc(O)cc([C@@H]2CC(=O)c3c(O)cc(O[C@@H]4O[C@H](CO)[C@@H](O)[C@H](O)[C@@H]4O[C@@H]4O[C@@H](C)[C@H](O)[C@@H](O)[C@@H]4O)cc3O2)c1` [Neohesperidin], the Prob-Test is reported as 0.204.
`O=C(NNc1nc2cc(F)ccc2n2cccc12)c1cnccn1` gave a Prob-Test of -1.2.
With `CCOC(=O)c1ccc(N)cc1` [Benzocaine] the Prob-Test was -0.295.
Work on `C[C@@H]1[C@H](O)[C@@H](C)/C=C/C=C/C=C/C=C/C=C/C=C/C=C/[C@H](O[C@@H]2O[C@H](C)[C@@H](O)[C@H](N)[C@@H]2O)C[C@@H]2O[C@@](O)(C[C@@H](O)C[C@@H](O)[C@H](O)CC[C@@H](O)C[C@@H](O)CC(=O)O[C@H]1C)C[C@H](O)[C@@H]2C(=O)O` [Amphotericin B] yielded a Prob-Test of 0.187.
With `Cl.Cl.Fc1cc(-c2cccc3ncc(-c4cnn(C5CCNCC5)c4)nc23)cc(F)c1CN1CCOCC1` the Prob-Test was 0.36.
Work on `C=C(NC(=O)C(=C)NC(=O)c1csc(C2=N[C@@H]3c4csc(n4)[C@H]4NC(=O)c5csc(n5)[C@H]([C@](C)(O)[C@@H](C)O)NC(=O)[C@H]5CSC(=N5)/C(=C/C)NC(=O)[C@H]([C@@H](C)O)NC(=O)c5csc(n5)[C@]3(CC2)NC(=O)[C@H](C)NC(=O)C(=C)NC(=O)[C@H](C)NC(=O)[C@H]([C@@H](C)CC)N[C@@H]2C=Cc3c([C@H](C)O)cc(nc3[C@H]2O)C(=O)O[C@@H]4C)n1)C(N)=O` [Thiostrepton] yielded a Prob-Test of -0.41.
`COc1ccc(-c2oc3c(CC=C(C)C)c(OC4O[C@H](CO)[C@@H](O)[C@H](O)[C@H]4O)cc(O)c3c(=O)c2OC2O[C@@H](C)[C@H](O)[C@@H](O)[C@@H]2O)cc1` (some centres undefined) [Icariin] showed a Prob-Test of 0.105.
`CC(C)NCC(O)COc1cccc2[nH]ccc12` (centres undefined) [Pindolol] gave a Prob-Test of 0.149.
`NC(CO)(CO)CO` [Trometamol] showed a Prob-Test of 0.187.
In the case of `Cc1cc(-c2ncc(CC(=O)Nc3ccc(-c4cnccn4)cn3)cc2C)ccn1`, the Prob-Test is reported as -0.00317.
Work on `Cc1c[nH]c(-c2cnc(NCCNc3ccc(C#N)cn3)nc2-c2ccc(Cl)cc2Cl)n1.Cl` yielded a Prob-Test of -1.03.
`Cc1oncc1C(=O)Nc1ccc(C(F)(F)F)cc1` [Leflunomide] gave a Prob-Test of -1.78.
`C[C@H]1CCN(C(=O)CC#N)C[C@@H]1N(C)c1ncnc2[nH]ccc12` showed a Prob-Test of 0.0609.
In the case of `COc1cc2c(Nc3ccc(NC(=O)c4ccccc4)cc3)ncnc2cc1OCCCN1CCOCC1`, the Prob-Test is reported as -0.387.
In the case of `COc1ccc(C2(C#N)CCC(C(=O)O)CC2)cc1OC1CCCC1` (centres undefined) [Cilomilast], the Prob-Test is reported as -0.97.
`CN(C)CCN1C(=O)c2cccc3cc(N)cc(c23)C1=O` [Amonafide] was tested, and the Prob-Test was -0.568.
`C/C=C1/[C@H]2C=C(C)C[C@]1(N)c1ccc(=O)[nH]c1C2` [(-)-Huperzine A (HupA)] gave a Prob-Test of -0.119.
`CCCC(=O)O[C@@]1(C(=O)COC(C)=O)CC[C@H]2[C@@H]3C[C@H](F)C4=CC(=O)C=C[C@]4(C)[C@]3(F)[C@H](O)C[C@@]21C` [Difluprednate] showed a Prob-Test of -0.438.
`COc1cccc(-c2cc(=O)c3ccccc3o2)c1N` showed a Prob-Test of -1.13.
Molecule `COc1cc([C@H]2c3cc4c(cc3[C@@H](O[C@@H]3O[C@@H]5CO[C@@H](c6cccs6)O[C@H]5[C@H](O)[C@H]3O)[C@H]3COC(=O)[C@H]23)OCO4)cc(OC)c1O` [Teniposide] has a Prob-Test of -0.693.
With `Nc1ncnc2c1c(-c1cccc(OCc3ccccc3)c1)cn2[C@H]1C[C@H](CN2CCCC2)C1` the Prob-Test was 0.454.
Work on `OC[C@H]1O[C@@H](OCCc2ccc(O)cc2)[C@H](O)[C@@H](O)[C@@H]1O` [Salidroside] yielded a Prob-Test of 0.138.
In the case of `Cc1ccc(NC(=O)c2cccc(N(C)C)c2)cc1NC(=O)c1ccc(O)cc1`, the Prob-Test is reported as -0.372.
`CN1C(CCl)Nc2cc(Cl)c(S(N)(=O)=O)cc2S1(=O)=O` (centres undefined) [Methyclothiazide] was tested, and the Prob-Test was -0.0552.
